The results in this text go back to the supplement of paper PMC4604168 (melanoma cell lines).

This is one part of the list. Repeats are few or missing, and single values can be far off.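 The apoptosis fraction was the count of cleaved-PARP antibody-stained nuclei relative to all DNA-stained nuclei, imaged in 1,536-well plates. Screening doses were set so most cells survived, and baseline and induced cleaved-PARP levels vary greatly across cell lines.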

Among the test systems are WM115; WM1716; WM1745; WM3526; WM3619; WM451Lu.
Assay in all cases: cleaved PARP positive nuclei fraction relative to DMSO control; melanoma cells; higher = more apoptosis
Holding throughout (details): library dose: low library concentration; 72 h

For `CC(C)(C)c1cnc(CSc2cnc(NC(=O)C3CCNCC3)s2)o1` + O=c1cc(-c2cccc3c2Sc2ccccc2S3)oc(N2CCOCC2)c1 [KU55933] (first compound 0.01 µM, partner dose 1 µM), the “cleaved PARP positive nuclei fraction” value in the test on WM115 came to 77.3%; in the test on WM1716, 151%; with WM1745 it was 99.9%; in the test with WM3526, 75%; in the test on WM3619, 166%; in the test with WM451Lu it was 181%.
For the compound `Cc1ccc(NC(=O)c2cccc(N(C)C)c2)cc1NC(=O)c1ccc(O)cc1` + c1cc(-c2cnn3cc(-c4ccc(OCCN5CCCCC5)cc4)cnc23)ccn1 [Dorsomorphin] (first compound 2 µM, partner dose 0.4 µM), the “cleaved PARP positive nuclei fraction” value was found to be 106% in the test with WM115; 89.2% in the test with WM1716; 119% in the test with WM1745; 89.1% with WM3526; 104% with WM3619; 61.4% with WM451Lu.
`Nc1cccc2c1CN(C1CCC(=O)NC1=O)C2=O` (configuration not stated) [lenalidomide] + C[C@@H]1CCN(C(=O)CC#N)C[C@@H]1N(C)c1ncnc2[nH]ccc12 [CP690550] (first compound 1 µM, partner dose 1 µM): the “cleaved PARP positive nuclei fraction” value with WM115 was found to be 75.2%; with WM1716, 101%; with WM1745, 93%; in the test on WM3526, 49.7%; in the test with WM3619 it was 98.6%; in the test on WM451Lu, 36.7%.
For `Cc1nc(Nc2ncc(C(=O)Nc3c(C)cccc3Cl)s2)cc(N2CCN(CCO)CC2)n1` [dasatanib] + Cc1cc([N+](=O)[O-])ccc1NS(=O)(=O)c1cc(Cl)ccc1Cl [FH535] (first compound 0.004 µM, partner dose 1 µM), the “cleaved PARP positive nuclei fraction” value in the test with WM115 was found to be 404%; with WM1716, 196%; in the test with WM1745 it was 146%; in the test on WM3526, 145%; with WM3619 it was 93.9%; in the test with WM451Lu it was 72.1%.
For `COCC[n+]1c2c(n(Cc3cnccn3)c1C)C(=O)c1ccccc1C2=O` + C[C@@H]1CCN(C(=O)CC#N)C[C@@H]1N(C)c1ncnc2[nH]ccc12 [CP690550] (first compound 0.0004 µM, partner dose 1 µM), the “cleaved PARP positive nuclei fraction” value in the test on WM115 is 77.4%; with WM1716 it was 269%; in the test with WM1745, 100%; with WM3526, 164%; in the test with WM3619 it was 91.6%; with WM451Lu, 299%.
In the case of `Cc1nc(Nc2ncc(C(=O)Nc3c(C)cccc3Cl)s2)cc(N2CCN(CCO)CC2)n1` [dasatanib] + OCCn1cc(-c2cnc3nnn(Cc4ccc5ncccc5c4)c3n2)cn1 [PF04217903] (first compound 0.004 µM, partner dose 1 µM), the “cleaved PARP positive nuclei fraction” value with WM115 came out at 104%; with WM1716 it was 195%; in the test with WM1745 it was 153%; with WM3526 it was 49%; in the test on WM3619, 124%; in the test with WM451Lu, 251%.
For `COc1cc(Nc2ncc(F)c(Nc3ccc4c(n3)NC(=O)C(C)(C)O4)n2)cc(OC)c1OC` [Tamatinib] + CC(C)(C)c1cnc(CSc2cnc(NC(=O)C3CCNCC3)s2)o1 [SNS-032] (first compound 0.4 µM, partner dose 0.01 µM), the “cleaved PARP positive nuclei fraction” value with WM115 was found to be 73%; in the test on WM1716 it was 172%; in the test on WM1745 it was 124%; with WM3526 it was 80.7%; in the test on WM3619, 81.6%; in the test on WM451Lu, 49.3%.
`Clc1ccc(Nc2nnc(Cc3ccncc3)c3ccccc23)cc1` [vatalanib] + COc1ccc(-c2ccc3c(N4CCOCC4)nc(N4C[C@@H](C)O[C@@H](C)C4)nc3n2)cc1CO [KU0063794] (first compound 2 µM, partner dose 0.02 µM): the “cleaved PARP positive nuclei fraction” value in the test with WM115 is 118%; with WM1716, 183%; in the test with WM1745, 97.7%; with WM3526 it was 64.7%; in the test with WM3619, 77.1%; with WM451Lu it was 143%.
Regarding `OCc1c[nH]c2ccccc12` [Indole-3-carbinol] + Clc1ccc(Nc2nnc(Cc3ccncc3)c3ccccc23)cc1 [vatalanib] (first compound 0.8 µM, partner dose 2 µM), the “cleaved PARP positive nuclei fraction” value came out at 129% in the test with WM115; 79.1% in the test with WM1716; 94% in the test with WM1745; 44.4% in the test on WM3526; 79.4% with WM3619; 97.2% in the test with WM451Lu.
Regarding `O=C(Nc1cccc(Cl)c1)Nc1ncc(CCNc2ncnc3ccsc23)s1` + Cn1cc(/C=C2\C(=O)Nc3cccnc32)c2ccccc21 [GW441756] (first compound 0.0008 µM, partner dose 0.4 µM), the “cleaved PARP positive nuclei fraction” value came to 52.9% in the test with WM115; 74.2% in the test on WM1716; 102% in the test with WM1745; 60.3% in the test with WM3526; 84.5% with WM3619; 106% in the test on WM451Lu.
As for `OCCn1cc(-c2cnc3nnn(Cc4ccc5ncccc5c4)c3n2)cn1` + COc1ccc(-c2ccc3c(N4CCOCC4)nc(N4C[C@@H](C)O[C@@H](C)C4)nc3n2)cc1CO [KU0063794] (first compound 1 µM, partner dose 0.02 µM), the “cleaved PARP positive nuclei fraction” value in the test on WM115 was found to be 272%; in the test on WM1716, 170%; in the test on WM1745 it was 313%; in the test with WM3526, 276%; in the test on WM3619, 247%; in the test with WM451Lu, 88.4%.
As for `COc1cc(Nc2ncc(F)c(Nc3ccc4c(n3)NC(=O)C(C)(C)O4)n2)cc(OC)c1OC` [Tamatinib] + CCc1ccc(CCOc2ccc(CC3SC(=O)NC3=O)cc2)nc1 [pioglitazone] (first compound 0.4 µM, partner dose 2 µM), the “cleaved PARP positive nuclei fraction” value in the test with WM115 was found to be 158%; in the test on WM1716, 58.2%; in the test with WM1745, 118%; in the test on WM3526, 67.8%; in the test with WM3619, 86%; in the test on WM451Lu it was 52.8%.
As to `C[C@@H]1CCN(C(=O)CC#N)C[C@@H]1N(C)c1ncnc2[nH]ccc12` + CN(NC(=O)CC(=O)NN(C)C(=S)c1ccccc1)C(=S)c1ccccc1 [STA4783] (first compound 1 µM, partner dose 0.006 µM), the “cleaved PARP positive nuclei fraction” value with WM115 is 74.5%; with WM1716, 66.3%; in the test with WM1745 it was 204%; with WM3526 it was 119%; with WM3619, 113%; in the test with WM451Lu, 51.7%.
As for `C[C@]1(c2nc3c(C(N)=O)cccc3[nH]2)CCCN1` [Veliparib] + COc1ccc(COc2ccc(Cc3cnc(N)nc3N)cc2OC)cc1 [GW2580] (first compound 1.4 µM, partner dose 1 µM), the “cleaved PARP positive nuclei fraction” value was determined as 102% with WM115; 102% with WM1716; 120% in the test on WM1745; 130% in the test with WM3526; 91.1% with WM3619; 105% in the test on WM451Lu.
As to `Cc1ccc(NC(=O)c2cccc(N(C)C)c2)cc1NC(=O)c1ccc(O)cc1` + O=C(O)c1ccc(-c2c[nH]c3ncc(-c4ccccc4)cc23)cc1C1CCCC1 [GSK650394] (first compound 2 µM, partner dose 0.16 µM), the “cleaved PARP positive nuclei fraction” value in the test on WM115 worked out at 237%; with WM1716, 102%; in the test on WM1745 it was 93.7%; in the test with WM3526, 60.2%; in the test on WM3619, 109%; in the test with WM451Lu it was 77%.
Turning to `Cn1c(Nc2ccc(C(F)(F)F)cc2)nc2cc(Oc3ccnc(-c4ncc(C(F)(F)F)[nH]4)c3)ccc21` + Cc1ccc(NC(=O)c2cccc(N(C)C)c2)cc1NC(=O)c1ccc(O)cc1 [ZM336372] (first compound 0.08 µM, partner dose 2 µM), the “cleaved PARP positive nuclei fraction” value in the test with WM115 came to 1040%; with WM1716 it was 301%; in the test with WM1745, 141%; in the test with WM3526 it was 263%; with WM3619, 115%; in the test with WM451Lu, 128%.
`Cc1cc(N2CCOCC2)cc2[nH]c(-c3c(NC[C@@H](O)c4cccc(Cl)c4)cc[nH]c3=O)nc12` + Cn1cc(/C=C2\C(=O)Nc3cccnc32)c2ccccc21 [GW441756] (first compound 0.2 µM, partner dose 0.4 µM): the “cleaved PARP positive nuclei fraction” value with WM115 is 46.2%; with WM1716, 164%; in the test with WM1745, 128%; in the test on WM3526, 62.7%; with WM3619 it was 74.7%; with WM451Lu, 107%.
On to `Nc1cccc2c1CN(C1CCC(=O)NC1=O)C2=O` (configuration not stated) [lenalidomide] + C[C@]1(c2nc3c(C(N)=O)cccc3[nH]2)CCCN1 [Veliparib] (first compound 1 µM, partner dose 1.4 µM), for which the “cleaved PARP positive nuclei fraction” value amounted to 92.3% in the test on WM115; 50.5% in the test with WM1716; 104% in the test with WM1745; 38.6% with WM3526; 90.9% with WM3619; 21.1% in the test on WM451Lu.
In the case of `Cc1ccc(NC(=O)c2cccc(N(C)C)c2)cc1NC(=O)c1ccc(O)cc1` + CCc1ccc(CCOc2ccc(CC3SC(=O)NC3=O)cc2)nc1 [pioglitazone] (first compound 2 µM, partner dose 2 µM), the “cleaved PARP positive nuclei fraction” value in the test on WM115 amounted to 64.9%; in the test on WM1716, 94.9%; with WM1745 it was 107%; in the test on WM3526, 58.6%; with WM3619 it was 92.7%; in the test with WM451Lu, 67.2%.
`C[C@@H]1CCN(C(=O)CC#N)C[C@@H]1N(C)c1ncnc2[nH]ccc12` + N#Cc1c(O)c2c(-c3ccc(-c4ccccc4O)cc3)csc2[nH]c1=O [A769662] (first compound 1 µM, partner dose 2 µM): the “cleaved PARP positive nuclei fraction” value in the test with WM115 was 45.3%; in the test with WM1716 it was 106%; in the test on WM1745, 320%; with WM3526, 63.8%; in the test with WM3619, 78.8%; with WM451Lu, 62.5%.
For the compound `C=CCn1c(=O)c2cnc(Nc3ccc(N4CCN(C)CC4)cc3)nc2n1-c1cccc(C(C)(C)O)n1` + COC(=O)c1sccc1S(=O)(=O)Nc1ccc(Nc2ccccc2)cc1OC [GSK0660] (first compound 0.02 µM, partner dose 1 µM), the “cleaved PARP positive nuclei fraction” value in the test with WM115 is 157%; in the test with WM1716, 96.3%; in the test with WM1745 it was 107%; with WM3526, 28.7%; in the test on WM3619, 110%; in the test with WM451Lu, 63.6%.
Take `COc1cc(Nc2ncc(F)c(Nc3ccc4c(n3)NC(=O)C(C)(C)O4)n2)cc(OC)c1OC` [Tamatinib] + COc1cc2ncnc(Nc3ccc(Oc4ccccc4)cc3)c2cc1OC [SrcI1] (first compound 0.4 µM, partner dose 2 µM): the “cleaved PARP positive nuclei fraction” value with WM115 came out at 160%; in the test on WM1716 it was 77.8%; with WM1745, 163%; in the test with WM3526 it was 243%; in the test with WM3619 it was 88.3%; in the test with WM451Lu, 30.9%.
